No constants are given. Whether binding was seen depends on the method and setting. In cells and extracts the contact can be indirect. Some binding calls cover weakened binding; strength is not graded here.

The chains behind the UniProt entries cited, without tags or fusion partners. Where a name states a change or a piece, a line headed by the entry shows the natural chain unless it says otherwise.
UniProt Q13535: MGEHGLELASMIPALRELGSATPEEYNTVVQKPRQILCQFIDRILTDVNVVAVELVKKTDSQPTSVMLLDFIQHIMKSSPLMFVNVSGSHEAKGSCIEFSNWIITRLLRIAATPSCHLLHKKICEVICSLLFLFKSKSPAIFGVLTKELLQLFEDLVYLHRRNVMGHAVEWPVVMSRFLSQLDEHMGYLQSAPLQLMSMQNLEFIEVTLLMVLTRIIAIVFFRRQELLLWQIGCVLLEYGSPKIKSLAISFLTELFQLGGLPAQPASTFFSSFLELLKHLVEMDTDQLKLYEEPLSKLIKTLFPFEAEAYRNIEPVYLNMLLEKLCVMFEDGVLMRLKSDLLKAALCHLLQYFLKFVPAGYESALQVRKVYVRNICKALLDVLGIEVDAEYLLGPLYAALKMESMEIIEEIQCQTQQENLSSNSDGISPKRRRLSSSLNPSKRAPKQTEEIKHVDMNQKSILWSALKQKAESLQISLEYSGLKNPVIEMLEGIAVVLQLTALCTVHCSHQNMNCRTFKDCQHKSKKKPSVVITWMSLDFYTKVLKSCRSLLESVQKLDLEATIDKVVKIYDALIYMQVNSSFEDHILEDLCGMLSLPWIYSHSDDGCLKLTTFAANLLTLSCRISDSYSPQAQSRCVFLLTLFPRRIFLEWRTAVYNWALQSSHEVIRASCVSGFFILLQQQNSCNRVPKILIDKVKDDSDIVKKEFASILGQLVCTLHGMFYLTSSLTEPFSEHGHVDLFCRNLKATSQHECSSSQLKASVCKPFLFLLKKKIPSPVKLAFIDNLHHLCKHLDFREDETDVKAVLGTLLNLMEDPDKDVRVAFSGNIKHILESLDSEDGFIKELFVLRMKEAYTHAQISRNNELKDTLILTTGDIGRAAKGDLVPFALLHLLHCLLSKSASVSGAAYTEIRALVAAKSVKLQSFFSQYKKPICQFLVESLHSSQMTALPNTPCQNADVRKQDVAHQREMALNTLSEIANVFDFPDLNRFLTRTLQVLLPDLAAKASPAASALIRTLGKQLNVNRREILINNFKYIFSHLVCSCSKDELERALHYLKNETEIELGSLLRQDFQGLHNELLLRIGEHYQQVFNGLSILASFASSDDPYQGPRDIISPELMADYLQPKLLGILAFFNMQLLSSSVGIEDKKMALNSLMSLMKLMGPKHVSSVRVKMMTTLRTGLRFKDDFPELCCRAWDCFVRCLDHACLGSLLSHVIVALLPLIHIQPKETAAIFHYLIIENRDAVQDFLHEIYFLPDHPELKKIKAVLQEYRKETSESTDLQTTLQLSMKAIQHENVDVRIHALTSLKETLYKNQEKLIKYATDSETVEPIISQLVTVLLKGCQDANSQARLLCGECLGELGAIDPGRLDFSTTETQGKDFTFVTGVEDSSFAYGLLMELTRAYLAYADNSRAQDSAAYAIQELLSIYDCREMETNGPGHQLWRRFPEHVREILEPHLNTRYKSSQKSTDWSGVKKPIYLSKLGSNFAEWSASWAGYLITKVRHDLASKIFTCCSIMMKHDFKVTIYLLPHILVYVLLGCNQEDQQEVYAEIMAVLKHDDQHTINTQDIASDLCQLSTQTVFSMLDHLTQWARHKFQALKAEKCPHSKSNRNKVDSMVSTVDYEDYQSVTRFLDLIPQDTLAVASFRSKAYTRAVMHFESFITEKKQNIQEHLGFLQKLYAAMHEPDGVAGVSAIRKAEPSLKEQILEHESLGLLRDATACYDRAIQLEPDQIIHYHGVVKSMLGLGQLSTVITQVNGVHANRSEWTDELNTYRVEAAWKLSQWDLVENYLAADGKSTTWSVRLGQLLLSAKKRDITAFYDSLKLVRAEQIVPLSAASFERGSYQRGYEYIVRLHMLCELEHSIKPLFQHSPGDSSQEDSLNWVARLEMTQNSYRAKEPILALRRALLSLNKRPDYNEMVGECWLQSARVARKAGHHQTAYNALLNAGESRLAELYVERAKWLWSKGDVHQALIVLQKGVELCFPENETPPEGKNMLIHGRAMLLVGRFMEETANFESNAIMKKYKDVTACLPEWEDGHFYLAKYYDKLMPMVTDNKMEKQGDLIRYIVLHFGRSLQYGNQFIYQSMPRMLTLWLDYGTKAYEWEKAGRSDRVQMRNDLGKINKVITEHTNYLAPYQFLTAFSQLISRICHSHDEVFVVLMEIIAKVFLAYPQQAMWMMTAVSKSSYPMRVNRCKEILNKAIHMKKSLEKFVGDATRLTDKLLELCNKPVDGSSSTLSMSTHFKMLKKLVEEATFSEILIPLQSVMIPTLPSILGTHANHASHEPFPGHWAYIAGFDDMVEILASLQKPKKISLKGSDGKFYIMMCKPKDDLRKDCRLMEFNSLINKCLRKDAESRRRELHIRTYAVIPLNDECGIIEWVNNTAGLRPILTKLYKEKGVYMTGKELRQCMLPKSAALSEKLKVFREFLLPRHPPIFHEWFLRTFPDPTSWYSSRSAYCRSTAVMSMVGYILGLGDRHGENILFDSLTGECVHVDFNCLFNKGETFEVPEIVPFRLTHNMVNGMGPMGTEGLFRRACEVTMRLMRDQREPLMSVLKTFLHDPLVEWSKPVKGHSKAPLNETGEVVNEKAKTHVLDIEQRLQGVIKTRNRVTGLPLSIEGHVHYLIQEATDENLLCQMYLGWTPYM

We go through two molecules from paper PMC10542231.

Assay [1] deals with T1, Mre11 (human (endogenous in HCT116)) (UniProt P49959).
T1 sequence: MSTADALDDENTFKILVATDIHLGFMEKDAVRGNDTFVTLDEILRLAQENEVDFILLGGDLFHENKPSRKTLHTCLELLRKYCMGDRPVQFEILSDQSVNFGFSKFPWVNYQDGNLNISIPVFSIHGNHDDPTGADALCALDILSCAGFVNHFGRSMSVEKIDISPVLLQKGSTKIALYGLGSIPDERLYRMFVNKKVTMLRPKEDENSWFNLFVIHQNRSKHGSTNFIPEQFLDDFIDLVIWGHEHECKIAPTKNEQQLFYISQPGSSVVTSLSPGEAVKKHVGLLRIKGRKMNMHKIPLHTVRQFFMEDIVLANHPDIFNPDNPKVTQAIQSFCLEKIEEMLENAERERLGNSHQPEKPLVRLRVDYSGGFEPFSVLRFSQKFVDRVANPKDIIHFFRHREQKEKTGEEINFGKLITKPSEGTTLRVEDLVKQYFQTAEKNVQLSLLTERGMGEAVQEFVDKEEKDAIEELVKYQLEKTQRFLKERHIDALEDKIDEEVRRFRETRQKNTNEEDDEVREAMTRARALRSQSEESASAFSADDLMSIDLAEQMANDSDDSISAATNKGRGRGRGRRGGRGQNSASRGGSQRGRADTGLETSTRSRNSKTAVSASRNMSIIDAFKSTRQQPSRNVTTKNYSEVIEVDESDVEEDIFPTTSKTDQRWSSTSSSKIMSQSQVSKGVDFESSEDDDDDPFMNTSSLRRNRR
Kind of assay: co-IP; Pierce Crosslink IP Kit; antibody against ATR or Mre11 (5 ug) crosslinked to Protein A/G Plus Agarose; 1 mg total lysate of sg-ctrl and scaRNA2 knockdown HCT116 cells, 8 h after 8 Gy irradiation; overnight at 4 °C; western blot.

Assay [2] has as its target T2, Mre11 (human (endogenous in HCT116)), P49959.
T2 chain: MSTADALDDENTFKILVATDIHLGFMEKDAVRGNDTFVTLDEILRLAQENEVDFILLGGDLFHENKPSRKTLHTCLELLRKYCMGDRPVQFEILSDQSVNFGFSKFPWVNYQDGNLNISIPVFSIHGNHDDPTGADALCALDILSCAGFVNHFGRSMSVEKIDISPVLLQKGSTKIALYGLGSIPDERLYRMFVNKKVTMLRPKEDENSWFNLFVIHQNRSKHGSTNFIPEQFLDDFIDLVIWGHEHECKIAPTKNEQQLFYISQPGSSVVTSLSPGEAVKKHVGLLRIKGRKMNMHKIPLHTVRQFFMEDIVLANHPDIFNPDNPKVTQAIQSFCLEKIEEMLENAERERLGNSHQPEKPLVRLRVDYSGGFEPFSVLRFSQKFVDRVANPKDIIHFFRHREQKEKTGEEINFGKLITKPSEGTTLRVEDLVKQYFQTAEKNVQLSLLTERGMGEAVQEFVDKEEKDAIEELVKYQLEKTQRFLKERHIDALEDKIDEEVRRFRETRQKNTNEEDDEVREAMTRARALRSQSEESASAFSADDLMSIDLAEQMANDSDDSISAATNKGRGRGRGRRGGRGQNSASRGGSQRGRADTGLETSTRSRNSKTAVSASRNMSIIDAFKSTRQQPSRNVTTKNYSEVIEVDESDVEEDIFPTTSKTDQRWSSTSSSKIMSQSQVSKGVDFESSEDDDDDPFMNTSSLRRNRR
Described as above. As to conditions: remark: other sources report otherwise.

With “Ataxia telangiectasia-mutated and Rad3-related (ATR) (from UniProt Q13535 1-2644)”, the binding result in assay [1] is given as “binds”.

B1: Exo1, Q9UQ84 1-846 (protein)
chain: MGIQGLLQFIKEASEPIHVRKYKGQVVAVDTYCWLHKGAIACAEKLAKGEPTDRYVGFCMKFVNMLLSHGIKPILVFDGCTLPSKKEVERSRRERRQANLLKGKQLLREGKVSEARECFTRSINITHAMAHKVIKAARSQGVDCLVAPYEADAQLAYLNKAGIVQAIITEDSDLLAFGCKKVILKMDQFGNGLEIDQARLGMCRQLGDVFTEEKFRYMCILSGCDYLSSLRGIGLAKACKVLRLANNPDIVKVIKKIGHYLKMNITVPEDYINGFIRANNTFLYQLVFDPIKRKLIPLNAYEDDVDPETLSYAGQYVDDSIALQIALGNKDINTFEQIDDYNPDTAMPAHSRSHSWDDKTCQKSANVSSIWHRNYSPRPESGTVSDAPQLKENPSTVGVERVISTKGLNLPRKSSIVKRPRSAELSEDDLLSQYSLSFTKKTKKNSSEGNKSLSFSEVFVPDLVNGPTNKKSVSTPPRTRNKFATFLQRKNEESGAVVVPGTRSRFFCSSDSTDCVSNKVSIQPLDETAVTDKENNLHESEYGDQEGKRLVDTDVARNSSDDIPNNHIPGDHIPDKATVFTDEESYSFESSKFTRTISPPTLGTLRSCFSWSGGLGDFSRTPSPSPSTALQQFRRKSDSPTSLPENNMSDVSQLKSEESSDDESHPLREEACSSQSQESGEFSLQSSNASKLSQCSSKDSDSEESDCNIKLLDSQSDQTSKLRLSHFSKKDTPLRNKVPGLYKSSSADSLSTTKIKPLGPARASGLSKKPASIQKRKHHNAENKPGLQIKLNELWKNFGFKKDSEKLPPCKKPLSPVRDNIQLTPEAEEDIFNKPECGRVQRAIFQ
On to B1, for which the binding entry in assay [2] is “binds”.
